Laboratory results as given in patent US20160038449A1, “MULTI-COMPONENT PHARMACEUTICALS FOR TREATING DIABETES” (Complexa, Inc., priority 2010, published 2016).
At least one structure is not confirmed: it was looked up by name or label, or the drawing left a doubt.

Legend:
Type in all cases: in vivo
ob/ob mice [1] = assay: Blood glucose level of ob/ob mice after administration; conditions: ob/ob mice (FIG. 2)
Excerpt: Similar results are observed in experiments involving ob/ob mice.

WT mice = assay: Insulin sensitivity: blood glucose after administration of insulin in WT mice; conditions: 120 minute time course (FIG. 5)
ob/ob mice [2] = assay: Insulin sensitivity: blood glucose after administration of insulin in ob/ob mice; conditions: 120 minute time course (FIG. 6)

## CN(CCOc1ccc(CC2SC(=O)NC2=O)cc1)c1ccccn1 (stereo not drawn) [rosiglitazone]
ob/ob mice [1]
  change of blood glucose level over the course of the study: effectively reduced the blood glucose level over the course of the study
WT mice
  blood glucose levels after administration of insulin: initial drop in blood glucose levels after administration of insulin followed by an increase in blood glucose back to normal levels about 120 minutes after the administration of insulin
ob/ob mice [2]
  blood glucose levels after administration of insulin: substantially unchanged upon administration of insulin
